Results: PubChem BioAssay AID504847 (National Center for Advancing Translational Sciences (NCATS), 2011)
Values joined by “and” are separate entries in the source; they are usually repeats but may differ in a detail not shown here. Equal values may be shown once. About 3,700 (0.93%) of roughly 400,000 compounds were called active. Inconclusive means that the source gave no clear call. Such entries were picked first, then a sample of the others. Calls follow the shape of the dose curve; as a rule, active = well fitted inhibition curve with a large enough effect; inconclusive = small, poorly fitted or top-dose-only effect, or another doubt; inactive = no such curve, though single readings can be large or run the other way. Where the call is inconclusive, the potency comes from a doubtful curve fit. The source holds several records for some structures; these can differ, active in one and inactive in another.

By UniProt entry, the sequences of proteins in these tests, tags left out.
UniProt P11473, whole entry, looked up: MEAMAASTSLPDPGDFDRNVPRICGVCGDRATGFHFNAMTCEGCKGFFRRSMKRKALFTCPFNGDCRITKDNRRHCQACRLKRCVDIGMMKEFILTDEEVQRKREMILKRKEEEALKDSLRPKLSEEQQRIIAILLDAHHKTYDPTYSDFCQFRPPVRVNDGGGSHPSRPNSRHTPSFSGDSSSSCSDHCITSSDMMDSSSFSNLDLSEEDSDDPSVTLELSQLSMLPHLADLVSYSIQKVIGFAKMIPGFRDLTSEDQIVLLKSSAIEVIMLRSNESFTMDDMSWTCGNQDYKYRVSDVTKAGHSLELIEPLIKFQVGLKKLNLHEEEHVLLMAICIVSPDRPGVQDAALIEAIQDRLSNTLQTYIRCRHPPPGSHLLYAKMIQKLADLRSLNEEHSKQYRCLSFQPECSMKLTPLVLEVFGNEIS

What follows are molecules tested against Vitamin D3 receptor (Homo sapiens) (UniProt P11473) (assay: Inhibitors of the vitamin D receptor (VDR): qHTS). Settings: VDR-SRC2-3 peptide fluorescence polarization, 2 h; max response, negative = inhibition: hits give low values.
In short: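 Inhibition of the VDR/SRC2-3 peptide interaction is quantified by fluorescence polarization. Compounds (23 nl, pintool) incubate with the reagents for 2 hours at ambient room temperature.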
% is scaled to controls: 0 for no effect and ±100 for the full control effect; potency is read from the fitted curve at half-maximal effect.

Potency, inconclusive:
Cc1ccc(Oc2ccc(S(=O)(=O)NCC(C)(C)N3CCOCC3)cc2)cc1 89.1 µM [inhibitor, single point], CC(C)CCn1c(SCc2ccc(Cl)cc2)nc2c1c(=O)[nH]c(=O)n2C 89.1 µM [inhibitor, single point], CC12CCC=CC1C(c1ccc3ccccc3c1Br)N(Cc1ccccc1)C2=O (centres undefined) 100 µM [inhibitor, single point], CC(c1ccccc1)N1CCN(C(=O)CCl)CC1 (centres undefined) 1.58 µM [inhibitor, partial curve, poor fit], Cc1ccc(NC(=O)CSc2nccn2Cc2ccco2)cc1Cl 3.98 µM [inhibitor, full curve, poor fit], Cc1ccc(C2=NOC(=O)/C2=C\c2ccc(C)o2)cc1 25.1 µM [inhibitor, single point], COc1ccc(/C=N/OCC(=O)Nc2nc3ccccc3s2)cc1OC 89.1 µM [inhibitor, single point], O=C1C(Br)=C(c2ccccc2)C(c2ccccc2)=C1c1ccccc1 44.7 µM [inhibitor, partial curve, poor fit], O=S(=O)(N/N=C/c1ccccc1F)c1ccccc1 89.1 µM [inhibitor, single point], CCOC(=O)CNC(=O)CSc1nc(-c2ccc(C)cc2)ns1 39.8 µM [inhibitor, partial curve], CC1CC(=O)C(C(C2=C(O)CC(C)CC2=O)c2ccccc2)=C(O)C1 (centres undefined) 89.1 µM [inhibitor, single point], CCC1CC2(C)NC(=O)c3c(sc4c3CC(C)(C)OC4)N2C1=O (centres undefined) 89.1 µM [inhibitor, single point], CC(=O)c1sc(NC(=O)c2cccs2)nc1C 12.6 µM [inhibitor, partial curve, poor fit], Cn1c(/C(C#N)=C(\O)c2ccc([N+](=O)[O-])cc2)nc2ccccc21 35.5 µM [inhibitor, single point], O=C(CCl)N(c1ccccc1)c1ccccc1 89.1 µM [inhibitor, single point], O=C(Nc1cccc(Cl)c1)c1ccc(F)c(S(=O)(=O)NCc2ccc3c(c2)OCO3)c1 100 µM [inhibitor, single point], COc1ccc(C(=O)c2sc(Nc3ccccc3)c(C(=O)Nc3ccc(OC)c(OC)c3)c2N)cc1 56.2 µM [inhibitor, partial curve], CCOC(=O)CN1C(=O)N[C@H](c2ccc(Br)cc2)C(C(C)=O)=C1C 89.1 µM [inhibitor, single point], CN(C)c1ccc(-c2nc(NCCN3CCOCC3)c3ccccc3n2)cc1 44.7 µM [inhibitor, partial curve], Cc1nonc1NC(=O)CSc1nc2ccccc2cc1C#N 63.1 µM [inhibitor, partial curve, poor fit], CSc1nc2[nH]c(=O)n(O)c(=O)c2n1Cc1ccccc1 89.1 µM [inhibitor, single point], O=C(N/N=C/C(Cl)=C/c1ccc([N+](=O)[O-])cc1)C(=O)Nc1ccc(C(=O)O)cc1 35.5 µM [inhibitor, single point], CCC(C)NS(=O)(=O)c1ccc(S(=O)(=O)N2CC=C(c3ccc(F)cc3)CC2)cc1 (centres undefined) 56.2 µM [inhibitor, partial curve, poor fit], COC(=O)c1c(NC(=O)Cn2cnc([N+](=O)[O-])n2)sc2c1CCC(C)C2 (centres undefined) 31.6 µM [inhibitor, partial curve, poor fit], CCCn1c(C(O)c2cccc(OC)c2)nc2ccccc21 (centres undefined) 79.4 µM [inhibitor, single point], CCN1CCN(c2nc3ccccc3nc2C(C#N)C(=O)OCc2ccccc2)CC1 (centres undefined) 44.7 µM [inhibitor, partial curve, poor fit], COc1ccc(Nc2nnc(SCC(=O)c3cc4ccccc4o3)s2)cc1 79.4 µM [inhibitor, single point], CCc1ccc(OCC(=O)NC(NC(=S)Nc2ccccc2)C(Cl)(Cl)Cl)cc1 (centres undefined) 2.82 µM [inhibitor, full curve, poor fit], Cc1cccc2sc(NNC(=O)c3cc(=O)c4ccccc4o3)nc12 100 µM [inhibitor, single point], Cc1noc(C)c1C(=O)N1CCC2(CCCN(c3ccccc3)C2)CC1 89.1 µM [inhibitor, single point], COC(=O)c1cc(OC)c(OC)cc1NC(=S)N1CCN(C/C=C/c2ccccc2)CC1 79.4 µM [inhibitor, single point], C[C@@H](NC(=O)C1(c2ccccc2)CCN(C(=O)OC(C)(C)C)CC1)C(=O)N[C@@H](Cc1ccccc1)C(=O)O 28.2 µM [inhibitor, partial curve, poor fit], Oc1ccccc1/C=N/n1cnn(Cc2ccccc2Cl)c1=S 35.5 µM [inhibitor, partial curve, poor fit], COC(=O)C1=C(C)NC(C)=C(C(=O)OCCN(C)Cc2ccccc2)C1c1cccc([N+](=O)[O-])c1 (centres undefined) 79.4 µM [inhibitor, single point] and 39.8 µM [inhibitor, full curve, poor fit] and 89.1 µM [inhibitor, partial curve, poor fit], COc1ccc(CN2CN(C3CCCC3)CSC2=S)cc1 89.1 µM [inhibitor, partial curve], O=C(O)COc1ccccc1/C=C1\SC(=S)N(/N=C/c2ccccc2O)C1=O 79.4 µM [inhibitor, partial curve], O=C(COC(=O)c1cc[n+]([O-])cc1)NCCc1ccc(Cl)cc1Cl 31.6 µM [inhibitor, partial curve, poor fit], CCOc1ccc(S(=O)(=O)NCc2cccnc2)cc1 79.4 µM [inhibitor, single point], CCOC(=O)c1c(-c2ccc(C)o2)csc1NC(=O)COC(=O)c1cccs1 89.1 µM [inhibitor, partial curve, poor fit], O=C(Nc1cccc2nsnc12)c1ccc(-c2cccc(Cl)c2)o1 100 µM [inhibitor, single point]

Potency, active:
CC1(C)CCC(C)(C)c2cc(C(=O)Nc3ccc(C(=O)O)cc3)ccc21 79.4 µM, CCCCCCCC1=CC2=C(Cl)C(=O)C(C)(OC(C)=O)C(=O)C2=CO1 (centres undefined) 50.1 µM, O=C(CC(Nc1ccc(Cl)cc1Cl)C(=O)O)c1ccccc1 (centres undefined) 79.4 µM, COc1ccc(/C=C\C(=O)CC(O)(c2ccccc2)C(F)(F)F)cc1 (centres undefined) 50.1 µM, CCOC(=O)C1=C(C)OC(N)=C(C#N)C1c1c(C)nn(-c2ccccc2)c1Cl (centres undefined) 70.8 µM, CCOc1cc(/C=C2\N=C(C)OC2=O)cc(Cl)c1OCC(=O)OC 44.7 µM

Max response, negative = inhibition, inactive:
CCOc1ccc(CNC(=O)c2ccc3nc(CC)c(CC)nc3c2)cc1 10.5%, CC(=O)NS(=O)(=O)c1ccc(NS(=O)(=O)c2ccc3ccccc3c2)cc1 8.74%, COc1ccc(C2CC(=O)N(Cc3ccc(F)cc3)c3ccccc3S2)cc1OC (centres undefined) -15.4%, Cc1ccc(-c2c3c(=O)n(C)c(=O)n(C)c3cn2Cc2cccnc2)cc1 5.68%, Cc1sc(NC(=O)c2ccco2)c(C(c2cccnc2)N2CCC(C)CC2)c1C (centres undefined) 4.3%, COn1c2c(c3c4no[n+]([O-])c4ccc31)CCCC2 -6.72%, COc1ccc(-n2nc(C(=O)Nc3cc(OC)c(OC)c(OC)c3)c(=O)n(C)c2=O)cc1 0.939%, CCOc1cc(CNc2cccc3ccccc23)cc(Br)c1OCC(=O)NC(C)(C)C -0.417%, COc1ccc(CCN2C(=O)CC(NC34CC5CC(CC(C5)C3)C4)C2=O)cc1OC (centres undefined) 13.7%, Fc1ccccc1N1CCN(C2CCN(Cc3c[nH]c4ccccc34)CC2)CC1 16.6%, N#Cc1nc(COc2ccccc2Cl)oc1N1CCCCCC1 -14.7%, CCCS(=O)(=O)C/C(N)=N/OC(=O)c1ccccc1Cl -10.4%, COC(=O)c1ccc(C2c3c(oc4ccccc4c3=O)C(=O)N2c2nc(C)c(C(=O)OC)s2)cc1 (centres undefined) -14.9%, Nc1ccc2nc(SCc3ccc([N+](=O)[O-])cc3)sc2c1 -17.3%, COC(=O)N1CCC[C@@]2(CCN(C(=O)Nc3cccc(C#N)c3)C2)C1 -8.16%, COC(=O)c1ccc(NC(=O)CN(CCc2ccccc2)S(=O)(=O)c2ccc(OC)cc2)cc1 -16.2%, Cc1ccc(Nc2ncc(C(=O)N3CCN(c4ccc(F)cc4)CC3)c3ccccc23)cc1Cl -2.62%, O=C(CS(=O)(=O)Cc1ccccc1)N1CCN(c2cccc(C(F)(F)F)c2)CC1 -14.1%
